Results are given in words; binding and its absence hold for the method and conditions named. In cells and extracts the contact can be indirect. Some binding calls cover weakened binding; strength is not graded here.
How the values were obtained:
GFP-PAK4 (human) = GFP-PAK4 (human) (UniProt O96013); assay: co-IP; GFP-Trap agarose beads (Chromotek) on lysates of HEK293 cells co-expressing GFP-PAK1 or GFP-PAK4 with myc-PDZ-RhoGEF, 48 h after transfection; lysis buffer 10 mM Tris/Cl pH 7.5, 150 mM NaCl, 0.5 mM EDTA, 0.5% NP40; 1 h at 4 °C; precipitate probed for myc-PDZ-RhoGEF
GFP-PAK1 (human) = GFP-PAK1 (human) (UniProt Q13153); assay: as above

The chains behind the UniProt entries cited, without tags or fusion partners.
UniProt O96013: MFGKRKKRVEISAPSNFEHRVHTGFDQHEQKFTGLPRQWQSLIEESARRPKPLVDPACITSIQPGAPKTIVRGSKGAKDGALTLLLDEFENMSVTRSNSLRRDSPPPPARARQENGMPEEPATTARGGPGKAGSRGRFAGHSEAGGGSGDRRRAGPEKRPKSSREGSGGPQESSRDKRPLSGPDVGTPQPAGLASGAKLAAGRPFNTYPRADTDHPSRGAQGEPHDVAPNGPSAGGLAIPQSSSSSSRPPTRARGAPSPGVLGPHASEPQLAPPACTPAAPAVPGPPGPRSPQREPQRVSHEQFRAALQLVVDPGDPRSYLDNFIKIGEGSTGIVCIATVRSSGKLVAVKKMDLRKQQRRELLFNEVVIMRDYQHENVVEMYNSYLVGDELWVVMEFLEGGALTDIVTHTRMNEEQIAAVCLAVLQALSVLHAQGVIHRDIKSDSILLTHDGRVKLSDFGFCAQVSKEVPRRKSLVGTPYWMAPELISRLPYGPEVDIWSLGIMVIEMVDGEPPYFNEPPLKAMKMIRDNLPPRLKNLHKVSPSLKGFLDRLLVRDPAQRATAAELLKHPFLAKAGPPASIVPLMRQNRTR
UniProt Q13153: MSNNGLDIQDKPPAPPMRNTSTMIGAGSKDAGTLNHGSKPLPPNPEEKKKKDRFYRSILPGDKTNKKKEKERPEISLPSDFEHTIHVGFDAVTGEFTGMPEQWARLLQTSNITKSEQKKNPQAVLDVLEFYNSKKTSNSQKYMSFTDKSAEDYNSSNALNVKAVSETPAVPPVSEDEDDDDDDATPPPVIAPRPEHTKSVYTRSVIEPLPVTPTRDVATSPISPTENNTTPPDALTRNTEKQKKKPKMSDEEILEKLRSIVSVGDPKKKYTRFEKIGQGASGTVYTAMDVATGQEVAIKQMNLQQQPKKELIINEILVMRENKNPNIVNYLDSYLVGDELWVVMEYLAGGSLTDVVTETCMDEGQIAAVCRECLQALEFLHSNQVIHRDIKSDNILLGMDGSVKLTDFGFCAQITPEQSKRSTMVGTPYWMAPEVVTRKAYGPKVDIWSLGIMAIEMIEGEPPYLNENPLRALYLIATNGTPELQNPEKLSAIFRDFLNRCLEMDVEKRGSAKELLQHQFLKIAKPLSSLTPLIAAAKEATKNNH
UniProt O15085: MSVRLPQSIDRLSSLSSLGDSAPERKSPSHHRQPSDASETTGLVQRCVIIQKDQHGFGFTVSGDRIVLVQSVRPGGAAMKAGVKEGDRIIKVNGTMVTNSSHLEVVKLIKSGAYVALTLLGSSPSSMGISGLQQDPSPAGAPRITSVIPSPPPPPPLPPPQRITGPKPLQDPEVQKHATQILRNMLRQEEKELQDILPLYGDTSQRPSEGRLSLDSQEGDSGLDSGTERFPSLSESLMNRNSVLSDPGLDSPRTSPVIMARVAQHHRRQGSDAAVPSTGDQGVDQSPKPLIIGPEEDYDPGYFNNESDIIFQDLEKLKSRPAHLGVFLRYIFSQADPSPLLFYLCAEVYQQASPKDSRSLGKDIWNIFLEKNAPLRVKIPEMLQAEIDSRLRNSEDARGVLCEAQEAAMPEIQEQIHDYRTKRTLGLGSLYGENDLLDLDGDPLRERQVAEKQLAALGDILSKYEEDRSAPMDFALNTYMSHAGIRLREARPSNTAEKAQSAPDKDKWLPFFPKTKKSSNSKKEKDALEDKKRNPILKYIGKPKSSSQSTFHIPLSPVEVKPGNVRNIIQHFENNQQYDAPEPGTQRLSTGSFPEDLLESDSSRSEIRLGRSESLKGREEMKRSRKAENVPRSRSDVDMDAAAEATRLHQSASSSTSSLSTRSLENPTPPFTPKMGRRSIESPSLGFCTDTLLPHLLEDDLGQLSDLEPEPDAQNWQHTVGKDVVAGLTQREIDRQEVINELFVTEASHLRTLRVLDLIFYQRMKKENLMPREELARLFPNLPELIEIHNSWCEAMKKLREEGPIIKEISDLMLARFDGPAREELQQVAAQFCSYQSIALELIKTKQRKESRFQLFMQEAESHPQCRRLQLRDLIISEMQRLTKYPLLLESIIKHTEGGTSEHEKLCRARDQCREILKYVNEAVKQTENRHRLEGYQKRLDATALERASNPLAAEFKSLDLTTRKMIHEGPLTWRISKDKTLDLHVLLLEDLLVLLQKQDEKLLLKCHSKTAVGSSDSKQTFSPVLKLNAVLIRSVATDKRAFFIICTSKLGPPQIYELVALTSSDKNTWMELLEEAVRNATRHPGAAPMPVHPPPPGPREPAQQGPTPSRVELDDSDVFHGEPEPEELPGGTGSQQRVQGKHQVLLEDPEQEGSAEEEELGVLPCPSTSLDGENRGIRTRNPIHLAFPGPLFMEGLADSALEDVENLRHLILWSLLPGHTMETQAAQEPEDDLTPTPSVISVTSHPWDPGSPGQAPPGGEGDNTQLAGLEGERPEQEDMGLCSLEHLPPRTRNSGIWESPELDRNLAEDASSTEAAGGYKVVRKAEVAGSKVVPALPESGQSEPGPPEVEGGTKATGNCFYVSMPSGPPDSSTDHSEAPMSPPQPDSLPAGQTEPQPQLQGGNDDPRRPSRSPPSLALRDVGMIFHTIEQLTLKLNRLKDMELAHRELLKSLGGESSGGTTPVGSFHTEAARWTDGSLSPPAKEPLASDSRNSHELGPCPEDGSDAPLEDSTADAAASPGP

myc-PDZ-RhoGEF (from UniProt O15085 1-1522)
binding (GFP-PAK4 (human)): binds | binding (GFP-PAK1 (human)): no binding
